Source: article PMC9642905
Results are given in words; binding and its absence hold for the method and conditions named. Binding can be weak; no strength is given. Sequences can lack the tags named with a protein. For part of these data: Binding seen in cells or lysates may run through a third protein.

T1: RME-8 DNAJ domain (1322-1388), Duplex LexA two-hybrid fusion (C. elegans) (UniProt G5ED36)
T1 sequence: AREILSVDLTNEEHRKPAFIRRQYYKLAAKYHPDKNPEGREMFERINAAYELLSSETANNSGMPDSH


What was measured:
[1] = molecular target: T1, RME-8 DNAJ domain (1322-1388), Duplex LexA two-hybrid fusion (C. elegans); test: two-hybrid; Duplex LexA 2-micron system; RME-8 C-terminus (no DNAJ) fragments against the DNAJ domain (1322-1388); spotted on SC-HIS-URA-TRP growth or SC GAL-HIS-TRP-LEU assay media
[2] = molecular target: DNAJ-GST (RME-8 DNAJ domain), wild-type (C. elegans); test: pull-down; HA-tagged RME-8 C-terminus fragments from an in vitro TnT system incubated with DNAJ-GST Sepharose beads; bound fraction on SDS-PAGE probed with an HA-antibody; only the target purified

Row | binding [1] | binding [2] | Molecule
1 | binds |  | RME-8 C-terminus (no DNAJ) D1657K, Duplex LexA two-hybrid fusion (C. elegans) (domain or fragment)
2 | binds |  | RME-8 C-terminus (no DNAJ) IWN4 mutant, Duplex LexA two-hybrid fusion (C. elegans) (domain or fragment)
3 |  | binds | HA-tagged RME-8 C-terminus (no DNAJ), wild-type, RME-8(1388-2279) (domain or fragment, UniProt G5ED36 1388-2279) HRIVLCLQAQSIIYSRYSQELSEYKYAGYSQLIKTIDLEAKDEALFIKGGGDLLSAAIELANYTLISSALNAEQLRRDNGLEALVTAFDRCVPMVTMSSLPDDMAVRVCIHVCDCFATAATFEACRQRLMEMPSIFGALTRLLQFSNLPRLSTAAAQCIRAMAVDTLLQFQLFQTGVLWQLVPHLFHFDYTLDEGGVQHSEDSNKQSLANSLARSSCEALAALAGFRENTPDNDGVQASLRALLTPYICRCMKLETNDMVLKTLNSNMENPYMIWDNGTRAEVLEFVERHRTSNEPTSELYGAEFELSVHKNELIVGDIFIRIYNEQPTFALHEPKKVAIDLLDYIKKHSAELTGAPKPKAISDDLIEIDWGNGSQANGNSLDTETKVLMTMTALANLVSANPGALFANKKGVEILLIGNFPLLITYLRCRKHPKLQIAALQVILLAAANKECVTDLATCNVTTTLFTLLRDQPKMIARVLDVLIALSSNGQIGKEMLEHGGLMYILSILCLTNSDQGQRLQAAELLAKLQADKLTGPRWTRFIIKFLPEIFADSLRDSPNTALQMFDSSSENPELIWNEVTRQKVKGIIDTEVGKLYEQHIKDPTVKWNTTSLADKSCAYGDSINGELVVGGVFVRLYVENPGFNVRHPKLFSTELIEKVLELMSRPTPELDLVTKAFVELVRHHPNTADQLPSQGYLPQFCTAMCLQNTSASRSAILILQELSENQFCCDALSQLPCIDGIMKSMKNQPSLMRESAHALKCLMKRNTGELAQQMLSCGMVPYLLQVLDSSMNGVSNGAAARAEIVDALKSAILDLKVGQKIAEILDKSPVWAQFKDQRHDLFLPEARTQAITGGPTGVAGYLTEGMFNPPPMSNQPPPMHQTSGDFQPPL
